The nature of this data set: TMTcalibrator quantification of regulated proteins in AD CSF versus control. The settings on record: CSF of AD patient versus control; non-modified peptides of each protein summed for three control and three AD cases. Further details: species or system human.

B1: O00273 (protein, UniProt O00273 1-331, looked up)
chain: MEVTGDAGVPESGEIRTLKPCLLRRNYSREQHGVAASCLEDLRSKACDILAIDKSLTPVTLVLAEDGTIVDDDDYFLCLPSNTKFVALASNEKWAYNNSDGGTAWISQESFDVDETDSGAGLKWKNVARQLKEDLSSIILLSEEDLQMLVDAPCSDLAQELRQSCATVQRLQHTLQQVLDQREEVRQSKQLLQLYLQALEKEGSLLSKQEESKAAFGEEVDAVDTGISRETSSDVALASHILTALREKQAPELSLSSQDLELVTKEDPKALAVALNWDIKKTETVQEACERELALRLQQTQSLHSLRSISASKASPPGDLQNPKRARQDPT
modifications: full-length
Turning to B1, the “Log2 AD/Control” value is −0.67.

B2: P25325 (protein, UniProt P25325 1-297, looked up)
chain: MASPQLCRALVSAQWVAEALRAPRAGQPLQLLDASWYLPKLGRDARREFEERHIPGAAFFDIDQCSDRTSPYDHMLPGAEHFAEYAGRLGVGAATHVVIYDASDQGLYSAPRVWWMFRAFGHHAVSLLDGGLRHWLRQNLPLSSGKSQPAPAEFRAQLDPAFIKTYEDIKENLESRRFQVVDSRATGRFRGTEPEPRDGIEPGHIPGTVNIPFTDFLSQEGLEKSPEEIRHLFQEKKVDLSKPLVATCGSGVTACHVALGAYLCGKPDVPIYDGSWVEWYMRARPEDVISEGRGKTH
modifications: full-length
As for B2, the “Log2 AD/Control” value is on record as 0.81.

B3: Q9UKG1 (protein, UniProt Q9UKG1 1-709, looked up)
chain: MPGIDKLPIEETLEDSPQTRSLLGVFEEDATAISNYMNQLYQAMHRIYDAQNELSAATHLTSKLLKEYEKQRFPLGGDDEVMSSTLQQFSKVIDELSSCHAVLSTQLADAMMFPITQFKERDLKEILTLKEVFQIASNDHDAAINRYSRLSKKRENDKVKYEVTEDVYTSRKKQHQTMMHYFCALNTLQYKKKIALLEPLLGYMQAQISFFKMGSENLNEQLEEFLANIGTSVQNVRREMDSDIETMQQTIEDLEVASDPLYVPDPDPTKFPVNRNLTRKAGYLNARNKTGLVSSTWDRQFYFTQGGNLMSQARGDVAGGLAMDIDNCSVMAVDCEDRRYCFQITSFDGKKSSILQAESKKDHEEWICTINNISKQIYLSENPEETAARVNQSALEAVTPSPSFQQRHESLRPAAGQSRPPTARTSSSGSLGSESTNLAALSLDSLVAPDTPIQFDIISPVCEDQPGQAKAFGQGGRRTNPFGESGGSTKSETEDSILHQLFIVRFLGSMEVKSDDHPDVVYETMRQILAARAIHNIFRMTESHLLVTCDCLKLIDPQTQVTRLTFPLPCVVLYATHQENKRLFGFVLRTSSGRSESNLSSVCYIFESNNEGEKICDSVGLAKQIALHAELDRRASEKQKEIERVKEKQQKELNKQKQIEKDLEEQSRLIAASSRPNQASSEGQFVVLSSSQSEESDLGEGGKKRESEA
modifications: full-length
Regarding B3, the “Log2 AD/Control” value worked out at 0.79.

B4: Q96A33 (protein, UniProt Q96A33 1-483, looked up)
chain: MKAFHTFCVVLLVFGSVSEAKFDDFEDEEDIVEYDDNDFAEFEDVMEDSVTESPQRVIITEDDEDETTVELEGQDENQEGDFEDADTQEGDTESEPYDDEEFEGYEDKPDTSSSKNKDPITIVDVPAHLQNSWESYYLEILMVTGLLAYIMNYIIGKNKNSRLAQAWFNTHRELLESNFTLVGDDGTNKEATSTGKLNQENEHIYNLWCSGRVCCEGMLIQLRFLKRQDLLNVLARMMRPVSDQVQIKVTMNDEDMDTYVFAVGTRKALVRLQKEMQDLSEFCSDKPKSGAKYGLPDSLAILSEMGEVTDGMMDTKMVHFLTHYADKIESVHFSDQFSGPKIMQEEGQPLKLPDTKRTLLFTFNVPGSGNTYPKDMEALLPLMNMVIYSIDKAKKFRLNREGKQKADKNRARVEENFLKLTHVQRQEAAQSRREEKKRAEKERIMNEEDPEKQRRLEEAALRREQKKLEKKQMKMKQIKVKAM
modifications: full-length
Consider B4, for which the “Log2 AD/Control” value is reported as 0.79.

B5: Q9BPU6 (protein, UniProt Q9BPU6 1-564, looked up)
chain: MLANSASVRILIKGGKVVNDDCTHEADVYIENGIIQQVGRELMIPGGAKVIDATGKLVIPGGIDTSTHFHQTFMNATCVDDFYHGTKAALVGGTTMIIGHVLPDKETSLVDAYEKCRGLADPKVCCDYALHVGITWWAPKVKAEMETLVREKGVNSFQMFMTYKDLYMLRDSELYQVLHACKDIGAIARVHAENGELVAEGAKEALDLGITGPEGIEISRPEELEAEATHRVITIANRTHCPIYLVNVSSISAGDVIAAAKMQGKVVLAETTTAHATLTGLHYYHQDWSHAAAYVTVPPLRLDTNTSTYLMSLLANDTLNIVASDHRPFTTKQKAMGKEDFTKIPHGVSGVQDRMSVIWERGVVGGKMDENRFVAVTSSNAAKLLNLYPRKGRIIPGADADVVVWDPEATKTISASTQVQGGDFNLYENMRCHGVPLVTISRGRVVYENGVFMCAEGTGKFCPLRSFPDTVYKKLVQREKTLKVRGVDRTPYLGDVAVVVHPGKKEMGTPLADTPTRPVTRHGGMRDLHESSFSLSGSQIDDHVPKRASARILAPPGGRSSGIW
modifications: full-length
In the case of B5, the “Log2 AD/Control” value is listed as 0.82.

B6: Q08495 (protein, UniProt Q08495 1-405, looked up)
chain: MERLQKQPLTSPGSVSPSRDSSVPGSPSSIVAKMDNQVLGYKDLAAIPKDKAILDIERPDLMIYEPHFTYSLLEHVELPRSRERSLSPKSTSPPPSPEVWADSRSPGIISQASAPRTTGTPRTSLPHFHHPETSRPDSNIYKKPPIYKQRESVGGSPQTKHLIEDLIIESSKFPAAQPPDPNQPAKIETDYWPCPPSLAVVETEWRKRKASRRGAEEEEEEEDDDSGEEMKALRERQREELSKVTSNLGKMILKEEMEKSLPIRRKTRSLPDRTPFHTSLHQGTSKSSSLPAYGRTTLSRLQSTEFSPSGSETGSPGLQNGEGQRGRMDRGNSLPCVLEQKIYPYEMLVVTNKGRTKLPPGVDRMRLERHLSAEDFSRVFAMSPEEFGKLALWKRNELKKKASLF
modifications: full-length
As for B6, the “Log2 AD/Control” value is given as 0.76.

B7: P14927 (protein, UniProt P14927 1-111, looked up)
chain: MAGKQAVSASGKWLDGIRKWYYNAAGFNKLGLMRDDTIYEDEDVKEAIRRLPENLYNDRMFRIKRALDLNLKHQILPKEQWTKYEEENFYLEPYLKEVIRERKEREEWAKK
modifications: full-length
On to B7, for which the “Log2 AD/Control” value worked out at 0.98.

B8: Q8NFT8 (protein, UniProt Q8NFT8 1-737, looked up)
chain: MQPRRAQAPGAQLLPALALLLLLLGAGPRGSSLANPVPAAPLSAPGPCAAQPCRNGGVCTSRPEPDPQHPAPAGEPGYSCTCPAGISGANCQLVADPCASNPCHHGNCSSSSSSSSDGYLCICNEGYEGPNCEQALPSLPATGWTESMAPRQLQPVPATQEPDKILPRSQATVTLPTWQPKTGQKVVEMKWDQVEVIPDIACGNASSNSSAGGRLVSFEVPQNTSVKIRQDATASLILLWKVTATGFQQCSLIDGRSVTPLQASGGLVLLEEMLALGNNHFIGFVNDSVTKSIVALRLTLVVKVSTCVPGESHANDLECSGKGKCTTKPSEATFSCTCEEQYVGTFCEEYDACQRKPCQNNASCIDANEKQDGSNFTCVCLPGYTGELCQSKIDYCILDPCRNGATCISSLSGFTCQCPEGYFGSACEEKVDPCASSPCQNNGTCYVDGVHFTCNCSPGFTGPTCAQLIDFCALSPCAHGTCRSVGTSYKCLCDPGYHGLYCEEEYNECLSAPCLNAATCRDLVNGYECVCLAEYKGTHCELYKDPCANVSCLNGATCDSDGLNGTCICAPGFTGEECDIDINECDSNPCHHGGSCLDQPNGYNCHCPHGWVGANCEIHLQWKSGHMAESLTNMPRHSLYIIIGALCVAFILMLIILIVGICRISRIEYQGSSRPAYEEFYNCRSIDSEFSNAIASIRHARFGKKSRPAMYDVSPIAYEDYSPDDKPLVTLIKTKDL
modifications: full-length
Take B8: the “Log2 AD/Control” value is on record as 1.02.

B9: P47985 (protein, UniProt P47985 1-274, looked up)
chain: MLSVASRSGPFAPVLSATSRGVAGALRPLVQATVPATPEQPVLDLKRPFLSRESLSGQAVRRPLVASVGLNVPASVCYSHTDIKVPDFSEYRRLEVLDSTKSSRESSEARKGFSYLVTGVTTVGVAYAAKNAVTQFVSSMSASADVLALAKIEIKLSDIPEGKNMAFKWRGKPLFVRHRTQKEIEQEAAVELSQLRDPQHDLDRVKKPEWVILIGVCTHLGCVPIANAGDFGGYYCPCHGSHYDASGRIRLGPAPLNLEVPTYEFTSDDMVIVG
modifications: full-length
B9: the “Log2 AD/Control” value is recorded as 1.13.

B10: P60981 (protein, UniProt P60981 1-165, looked up)
chain: MASGVQVADEVCRIFYDMKVRKCSTPEEIKKRKKAVIFCLSADKKCIIVEEGKEILVGDVGVTITDPFKHFVGMLPEKDCRYALYDASFETKESRKEELMFFLWAPELAPLKSKMIYASSKDAIKKKFQGIKHECQANGPEDLNRACIAEKLGGSLIVAFEGCPV
modifications: full-length
Consider B10, for which the “Log2 AD/Control” value came to 0.93.

B11: Q5JTJ3 (protein, UniProt Q5JTJ3 1-125, looked up)
chain: MGPGGPLLSPSRGFLLCKTGWHSNRLLGDCGPHTPVSTALSFIAVGMAAPSMKERQVCWGARDEYWKCLDENLEDASQCKKLRSSFESSCPQQWIKYFDKRRDYLKFKEKFEAGQFEPSETTAKS
modifications: full-length
As for B11, the “Log2 AD/Control” value came out at 1.23.

B12: Q13217 (protein, UniProt Q13217 1-504, looked up)
chain: MVAPGSVTSRLGSVFPFLLVLVDLQYEGAECGVNADVEKHLELGKKLLAAGQLADALSQFHAAVDGDPDNYIAYYRRATVFLAMGKSKAALPDLTKVIQLKMDFTAARLQRGHLLLKQGKLDEAEDDFKKVLKSNPSENEEKEAQSQLIKSDEMQRLRSQALNAFGSGDYTAAIAFLDKILEVCVWDAELRELRAECFIKEGEPRKAISDLKAASKLKNDNTEAFYKISTLYYQLGDHELSLSEVRECLKLDQDHKRCFAHYKQVKKLNKLIESAEELIRDGRYTDATSKYESVMKTEPSIAEYTVRSKERICHCFSKDEKPVEAIRVCSEVLQMEPDNVNALKDRAEAYLIEEMYDEAIQDYETAQEHNENDQQIREGLEKAQRLLKQSQKRDYYKILGVKRNAKKQEIIKAYRKLALQWHPDNFQNEEEKKKAEKKFIDIAAAKEVLSDPEMRKKFDDGEDPLDAESQQGGGGNPFHRSWNSWQGFNPFSSGGPFRFKFHFN
modifications: full-length
Turning to B12, the “Log2 AD/Control” value is 0.86.

B13: Q03591 (protein, UniProt Q03591 1-330, looked up)
chain: MWLLVSVILISRISSVGGEATFCDFPKINHGILYDEEKYKPFSQVPTGEVFYYSCEYNFVSPSKSFWTRITCTEEGWSPTPKCLRLCFFPFVENGHSESSGQTHLEGDTVQIICNTGYRLQNNENNISCVERGWSTPPKCRSTDTSCVNPPTVQNAHILSRQMSKYPSGERVRYECRSPYEMFGDEEVMCLNGNWTEPPQCKDSTGKCGPPPPIDNGDITSFPLSVYAPASSVEYQCQNLYQLEGNKRITCRNGQWSEPPKCLHPCVISREIMENYNIALRWTAKQKLYLRTGESAEFVCKRGYRLSSRSHTLRTTCWDGKLEYPTCAKR
modifications: full-length
In the case of B13, the “Log2 AD/Control” value is recorded as −0.67.

B14: Q9P0K9 (protein, UniProt Q9P0K9 1-293, looked up)
chain: MARPPRQHPGVWASLLLLLLTGPAACAASPADDGAGPGGRGPRGRARGDTGADEAVPRHDSSYGTFAGEFYDLRYLSEEGYPFPTAPPVDPFAKIKVDDCGKTKGCFRYGKPGCNAETCDYFLSYRMIGADVEFELSADTDGWVAVGFSSDKKMGGDDVMACVHDDNGRVRIQHFYNVGQWAKEIQRNPARDEEGVFENNRVTCRFKRPVNVPRDETIVDLHLSWYYLFAWGPAIQGSITRHDIDSPPASERVVSIYKYEDIFMPSAAYQTFSSPFCLLLIVALTFYLLMGTP
modifications: full-length
Take B14: the “Log2 AD/Control” value came to 1.48.

(Values after patent US12419871B2, “Biomolecules involved in Alzheimer's disease” (ELECTROPHORETICS LIMITED, priority 2015, dated 2025).)
